In patent US5859019A, “Methods for protecting against cardiac ischemia by administering adenosine A2a receptor antagonists” (priority 1997, dated 1999):
For some assays here: The name of at least one read-out is uncertain. For some assays here: At least one structure is not confirmed: it was looked up by name or label, or the drawing left a doubt.

Assays:
[1] = system: ventricular cells cultured from chick embryos; assay: Hypoxia-induced injury / preconditioning of cultured ventricular cells (% cells killed, CK released); format: cell-based
Protocol: Ventricular cells were cultured from chick embryos 14 days in ovo, according to a previously described procedure (20, 27). Cells were plated at a density of 400,000 cells per ml and cultivated in a humidified 5% CO2 -95% air mixture at 37° C. […] For preconditioning studies, the medium was changed to a HEPES-buffered medium containing (mM) 139 NaCl, 4.7 KCl, 0.5 MgCl2, 0.9 CaCl2, 5 HEPES (N-2-hydroxyethylpiperazine-N'-2-ethanesulfonic acid) and 2% fetal bovine serum, pH=7.4, 37° C. before exposing cells to the various conditions at 37° C. Control cells were maintained in the HEPES-buffered media under room air. Hypoxia was produced by placing the cells in a hypoxic incubator (NuAire) where O2 was replaced by N2. The % O2 was monitored by both an oxygen Fyrite Gas Analyzer (Bacharach) and an oxygen analyzer (Model OX630, Engineered Systems & Designs). Preconditioning was induced by exposing the cells to five minutes of hypoxia, termed preconditioning hypoxia, prior to a second ninety-minute hypoxia. […]
The extent of hypoxia-induced injury to the ventricular cell was quantitatively determined by the percentages of cells killed and by the amount of creatine kinase (CK) released into the media. To quantitate the % cells killed, cells were exposed to a trypsin-EDTA Hanks' balanced salt solution for 10 minutes for detachment after the various treatment, followed by centrifugation (300 × g for 10 minutes) and resuspension in culture media for counting in a hemocytometer. Only live cells sedimented and the cells counted represented those that survived (29). None of the sedimented cells subsequently counted included trypan blue. […] The amount of CK was measured as enzyme activity (unit/mg), and increases in CK activity above the control level were determined. The percentage of cells killed was calculated as the number of cells obtained from the control group (representing cells not subjected to any hypoxia or drug treatment) minus the number of cells from the treatment group divided by number of cells in control group multiplied by 100%. […]

[2] = system: rat brain A1 and A2 receptors; details: second value in square brackets under the ratio; brackets not explained in the patent; cited from earlier work

| Compound | Effect on adenosine-induced preconditioning ([1]; 8-SPT 100 μM added during 5-min exposure to adenosine 10 μM) | Effect on protection by preconditioning when present during the ninety-minute hypoxia ([1]; 8-SPT present during ninety-minute hypoxia) | Effect on protection by preconditioning hypoxia (% cells killed, CK released) ([1]; agent present during five-minute preconditioning hypoxia, CSC 1 μM, CGS21680 1 μM, 8-SPT 100 μM, isoproterenol 0.3 μM, forskolin 1 μM, BayK 8644 0.1 μM) | A1/A2 ratio, value printed in square brackets [2] |
| --- | --- | --- | --- | --- |
| Cn1c(=O)c2[nH]c(-c3ccc(S(=O)(=O)O)cc3)nc2n(C)c1=O [8-SPT, 8-sulfophenyltheophylline] | completely abolished the preconditioning effect | completely abolish its protective effect | completely abolished the preconditioning effect |  |
| COc1cc(/C=C/c2nc3c(c(=O)n(C)c(=O)n3C)n2C)cc(OC)c1OC [44b] |  |  |  | > 5600 |
| C=CCn1c(=O)c2c(nc(/C=C/c3cc(OC)c(OC)c(OC)c3)n2C)n(CC=C)c1=O [compound 46] |  |  |  | > 6700 |
